These are yes or no findings as the source states them, for the method shown. In cells and extracts the contact can be indirect. Some results given as binding are weak or reduced against the parent protein; the word gives no strength.
Legend:
[1] = biological target: Rag GTPases (FLAG-hRagA and hRagC) (human), Q7L523+Q9HB90; test: co-IP; FLAG-tagged proteins precipitated from lysates of transfected cells with anti-FLAG M2 affinity gel, 2-3 h at 4 °C; IP lysis buffer 50 mM Tris pH 7.5, 1% Triton X-100, 150 mM NaCl, 50 mM NaF; four washes; co-purifying proteins detected by immunoblot; cells treated with various stresses (2-DG and pH 9.4 medium among them) before lysis; settings: remark: other sources report otherwise
[2] = biological target: Rag GTPases (FLAG-hRagA and hRagC) (human) (UniProt Q7L523+Q9HB90); test: as above

The chains behind the UniProt entries cited, without tags or fusion partners. Where a name states a change or a piece, a line headed by the entry shows the natural chain unless it says otherwise.
UniProt Q7L523: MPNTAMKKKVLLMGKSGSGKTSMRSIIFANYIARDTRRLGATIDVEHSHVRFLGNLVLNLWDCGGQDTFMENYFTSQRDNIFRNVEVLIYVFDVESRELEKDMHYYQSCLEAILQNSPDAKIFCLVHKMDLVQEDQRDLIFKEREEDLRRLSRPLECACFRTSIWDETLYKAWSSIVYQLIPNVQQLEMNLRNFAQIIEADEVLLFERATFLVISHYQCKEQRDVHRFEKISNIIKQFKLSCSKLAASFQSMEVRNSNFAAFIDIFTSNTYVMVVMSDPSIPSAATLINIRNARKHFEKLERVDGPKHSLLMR
UniProt Q9HB90: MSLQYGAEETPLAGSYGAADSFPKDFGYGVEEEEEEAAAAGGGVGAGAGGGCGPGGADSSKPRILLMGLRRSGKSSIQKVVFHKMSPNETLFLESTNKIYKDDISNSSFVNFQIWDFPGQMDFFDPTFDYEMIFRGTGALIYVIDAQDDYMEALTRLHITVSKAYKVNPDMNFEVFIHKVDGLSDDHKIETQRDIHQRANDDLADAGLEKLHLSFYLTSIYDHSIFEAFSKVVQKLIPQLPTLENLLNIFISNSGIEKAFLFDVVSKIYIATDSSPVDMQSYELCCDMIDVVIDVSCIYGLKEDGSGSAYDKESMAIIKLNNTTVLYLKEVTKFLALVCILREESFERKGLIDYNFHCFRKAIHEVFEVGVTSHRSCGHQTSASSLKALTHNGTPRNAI

B1: TSC1, Q92574 1-1164 (protein)
chain: MAQQANVGELLAMLDSPMLGVRDDVTAVFKENLNSDRGPMLVNTLVDYYLETSSQPALHILTTLQEPHDKHLLDRINEYVGKAATRLSILSLLGHVIRLQPSWKHKLSQAPLLPSLLKCLKMDTDVVVLTTGVLVLITMLPMIPQSGKQHLLDFFDIFGRLSSWCLKKPGHVAEVYLVHLHASVYALFHRLYGMYPCNFVSFLRSHYSMKENLETFEEVVKPMMEHVRIHPELVTGSKDHELDPRRWKRLETHDVVIECAKISLDPTEASYEDGYSVSHQISARFPHRSADVTTSPYADTQNSYGCATSTPYSTSRLMLLNMPGQLPQTLSSPSTRLITEPPQATLWSPSMVCGMTTPPTSPGNVPPDLSHPYSKVFGTTAGGKGTPLGTPATSPPPAPLCHSDDYVHISLPQATVTPPRKEERMDSARPCLHRQHHLLNDRGSEEPPGSKGSVTLSDLPGFLGDLASEEDSIEKDKEEAAISRELSEITTAEAEPVVPRGGFDSPFYRDSLPGSQRKTHSAASSSQGASVNPEPLHSSLDKLGPDTPKQAFTPIDLPCGSADESPAGDRECQTSLETSIFTPSPCKIPPPTRVGFGSGQPPPYDHLFEVALPKTAHHFVIRKTEELLKKAKGNTEEDGVPSTSPMEVLDRLIQQGADAHSKELNKLPLPSKSVDWTHFGGSPPSDEIRTLRDQLLLLHNQLLYERFKRQQHALRNRRLLRKVIKAAALEEHNAAMKDQLKLQEKDIQMWKVSLQKEQARYNQLQEQRDTMVTKLHSQIRQLQHDREEFYNQSQELQTKLEDCRNMIAELRIELKKANNKVCHTELLLSQVSQKLSNSESVQQQMEFLNRQLLVLGEVNELYLEQLQNKHSDTTKEVEMMKAAYRKELEKNRSHVLQQTQRLDTSQKRILELESHLAKKDHLLLEQKKYLEDVKLQARGQLQAAESRYEAQKRITQVFELEILDLYGRLEKDGLLKKLEEEKAEAAEAAEERLDCCNDGCSDSMVGHNEEASGHNGETKTPRPSSARGSSGSRGGGGSSSSSSELSTPEKPPHQRAGPFSSRWETTMGEASASIPTTVGSLPSSKSFLGMKARELFRNKSESQCDEDGMTSSLSESLKTELGKDLGVEAKIPLNLDGPHPSPPTPDSVGQLHIMDYNETHHEHS
Question: For B1, which binding [1] is on record?
Answer: The binding was “binds”.

B2: TBC1D7 (protein, UniProt Q9P0N9 1-293)
chain: MTEDSQRNFRSVYYEKVGFRGVEEKKSLEILLKDDRLDTEKLCTFSQRFPLPSMYRALVWKVLLGILPPHHESHAKVMMYRKEQYLDVLHALKVVRFVSDATPQAEVYLRMYQLESGKLPRSPSFPLEPDDEVFLAIAKAMEEMVEDSVDCYWITRRFVNQLNTKYRDSLPQLPKAFEQYLNLEDGRLLTHLRMCSAAPKLPYDLWFKRCFAGCLPESSLQRVWDKVVSGSCKILVFVAVEILLTFKIKVMALNSAEKITKFLENIPQDSSDAIVSKAIDLWHKHCGTPVHSS
Question: For B2, which binding [2] is on record?
Answer: Its binding is “binds”.

— paper PMC4754342
